Two sequences from PMC6488673, “Crystal structure of the Lin28-interacting module of human terminal uridylyltransferase that regulates let-7 expression” can be followed below.

For some of these results: No signal at the amounts used counts as a negative. For some of these results: Weaker means in comparison with the reference protein, sequence or condition of that experiment. For some of these results: Construct, isoform or probe ends are uncertain for at least one entry. For some of these results: At least one verdict was read from the data and is not stated in words by the source.

In one data set the test system is hLin28A_ZK + hTUT4_mini. Description: Tb(III) footprinting. The following applies: 10 mM Tb(III), hLin28A_ZK- and hTUT4_mini-dependent protection; recombinant protein; label: 5'-32P.
The test system of data set [1] is hTUT4_N C306A/C309A + hLin28A C306A,C309A,del579-610. Description: EMSA. The following applies: ternary complex abolished (outcome refers to TUT4 joining Lin28A:RNA); EMSA: 50 mM Tris-HCl pH 8.5, 100 mM NaCl, 10 mM MgCl2, 10 mM beta-mercaptoethanol, 10% glycerol, 10 min, room temperature; Tb(III) footprinting: same salts, 5% glycerol; recombinant protein; label: none in EMSA (ethidium bromide stain).

Data set [2] has as its system hTUT4_N H450A/K452A + hLin28A H450A,K452A,del579-610. Description: EMSA. Conditions: ternary complex reduced; EMSA: 50 mM Tris-HCl pH 8.5, 100 mM NaCl, 10 mM MgCl2, 10 mM beta-mercaptoethanol, 10% glycerol, 10 min, room temperature; Tb(III) footprinting: same salts, 5% glycerol; recombinant protein; label: none in EMSA (ethidium bromide stain).
In data set [3] the test system is hTUT4_N K321A/K324A + hLin28A K321A,K324A,del579-610. Description: EMSA. Conditions: ternary complex abolished (outcome refers to TUT4 joining Lin28A:RNA); EMSA: 50 mM Tris-HCl pH 8.5, 100 mM NaCl, 10 mM MgCl2, 10 mM beta-mercaptoethanol, 10% glycerol, 10 min, room temperature; Tb(III) footprinting: same salts, 5% glycerol; recombinant protein; label: none in EMSA (ethidium bromide stain).

Data set [4] has as its system hTUT4_N K326A/R327A + hLin28A K326A,R327A,del579-610. Description: EMSA. The following applies: ternary complex abolished (outcome refers to TUT4 joining Lin28A:RNA); EMSA: 50 mM Tris-HCl pH 8.5, 100 mM NaCl, 10 mM MgCl2, 10 mM beta-mercaptoethanol, 10% glycerol, 10 min, room temperature; Tb(III) footprinting: same salts, 5% glycerol; recombinant protein; label: none in EMSA (ethidium bromide stain).

In data set [5] the test system is hTUT4_N K329A/K330A + hLin28A K329A,K330A,del579-610. Description: EMSA. The following applies: ternary complex abolished (outcome refers to TUT4 joining Lin28A:RNA); EMSA: 50 mM Tris-HCl pH 8.5, 100 mM NaCl, 10 mM MgCl2, 10 mM beta-mercaptoethanol, 10% glycerol, 10 min, room temperature; Tb(III) footprinting: same salts, 5% glycerol; recombinant protein; label: none in EMSA (ethidium bromide stain).

In data set [6] the test system is hTUT4_N R669A/R670A + hLin28A R669A,R670A,del579-610. Description: EMSA. Conditions: ternary complex reduced; EMSA: 50 mM Tris-HCl pH 8.5, 100 mM NaCl, 10 mM MgCl2, 10 mM beta-mercaptoethanol, 10% glycerol, 10 min, room temperature; Tb(III) footprinting: same salts, 5% glycerol; recombinant protein; label: none in EMSA (ethidium bromide stain).

Regarding “UGAGGUAGUAGGUUGUAUAGUUUUAGGGUCACACCCACCACUGGGAGAUAACUAUACAAUCUACUGUCUUUC [5'-[32P] pre-let-7a-1]”, in the data set on hLin28A_ZK + hTUT4_mini, the binding result is on record as “binds”.
Turning to “UGAGGUAGUAGGUUGUAUAGUUUUAGGGUCACACCCACCACUGGGAGAUAACUAUACAAUCUACUGUCUUUC [pre-let-7a-1]”, the binding result is given as “no binding” in data set [1]; “binds more weakly” in data set [2]; “no binding” in data set [3]; “no binding” in data set [4]; “no binding” in data set [5]; “binds more weakly” in data set [6].
